Measured values reported in patent publication US10357479B2, “Angiotensin II receptor antagonist for the prevention or treatment of systemic diseases in cats” (priority 2006, dated 2019).
Entries after “also recorded” stand apart in the source; their conditions may differ.

Test: Safety after repeated oral administration over four weeks (Example 3)
Type: in vivo, cats
Conditions: oral once daily days 0 to 27, groups II (1 mg/kg) and III (3 mg/kg)
Experimental: The animals were allocated to 3 groups, 4 animals per group. […] The bottles with the test/control article looked identical with the exception of the animal no. in order to achieve blinding.
Blood samples for haematology and clinical chemistry were collected from the animals on days-1 (i.e. prior to the first treatment) and again on days 3, 7, 14, 28. Body weights were measured weekly and electrocardiography recording were made on days-1, 14, 21 and 28. A detailed physical examination including determination of rectal temperature and respiratory rate was carried out on days-1, 7, 14, 22 and 28. Systolic blood pressure (once daily) and heart rate (twice daily) were determined five days per week beginning prior to treatment until necropsy. The palatability of the administered article was assessed at various time points throughout treatment using a scoring system. On day 28 of the study, all animals were subjected to necropsy and stomach and kidneys were examined histopathologically. Relevant parameters were analysed using appropriate statistical procedures.

## CCCc1nc2c(C)cc(-c3nc4ccccc4n3C)cc2n1Cc1ccc(-c2ccccc2C(=O)O)cc1 [telmisartan, 4′-[2-n-propyl-4-methyl-6-(1-methylbenzimidazol-2-yl)-benzimidazol-1-ylmethyl]-biphenyl-2-carboxylic acid]
  palatability of the test article formulation: predominantly good or acceptable; also recorded: slightly impaired palatability
